Test system: rats
Experiment: Sedation observation in morphine-treated rats
Conditions: morphine 10 mg/kg IV plus vehicle

## CN1CC[C@]23c4c5ccc(O)c4O[C@H]2[C@@H](O)C=C[C@H]3[C@H]1C5 [Morphine, morphine]
  time rats remained obviously sedated: approximately 60 min
